Some of the results follow.
target: OsWRKY34 (Oryza sativa, UniProt Q0JBA9 1-250); assay: protein-binding microarray (RPBM); PBS, 2% BSA, 51.3 ng/ul salmon testes DNA, 50 uM zinc acetate, 200 nM TF, 25 C, 1 h; high values mean tight binding; details: protein: recombinant; tags: N-terminal polyhistidine and DsRed monomer fusion (pET32a); label: CyDye5-dUTP incorporated in the synthesized complementary strand; 3' TTTTT single-stranded linker to array surface; dsDNA, one strand shown
Summary of the method: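 Transcription factors were made in E. coli BL21-CodonPlus as N-terminal fusions to a polyhistidine tag and DsRed, then purified on Ni–NTA. After primer extension with Cy5-dUTP and blocking with 2% BSA, a custom Agilent array was exposed for 1 h at 25 °C to 200 nM protein in PBS, 2% BSA, salmon testes DNA and 50 µM zinc acetate. Washed arrays were scanned on an Axon 4000B, and the binding signal is per-feature fluorescence intensity in arbitrary units.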

Chains of the proteins cited; added tags and fusions are not shown.
UniProt Q0JBA9, entry or part of it: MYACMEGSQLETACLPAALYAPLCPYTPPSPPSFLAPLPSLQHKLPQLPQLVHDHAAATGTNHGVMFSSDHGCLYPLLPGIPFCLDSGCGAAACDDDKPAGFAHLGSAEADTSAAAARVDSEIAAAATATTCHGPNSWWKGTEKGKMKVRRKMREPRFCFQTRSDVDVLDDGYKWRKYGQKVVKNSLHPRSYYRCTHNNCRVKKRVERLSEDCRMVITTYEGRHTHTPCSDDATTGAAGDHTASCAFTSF

Sequence | binding signal
ACTAACAGTTAGATTAAATTGATATCTCGTACCTCATATTCGGAGTCACCTAGTGCAG | 8130 fluorescence intensity (a.u.)
ATTCTTTCTGCGTGTAGGTGTGCTTTCCTCTCTTTTTTTTCGGAGTCACCTAGTGCAG | 12300 fluorescence intensity (a.u.)
ACCATCCATTTTCCGTTGACTATCAATGTTTCTTGTGAACCGGAGTCACCTAGTGCAG | 15100 fluorescence intensity (a.u.)
AGCGTGACCATGTCGTCGTCTTCCCCTTGCCGGCCGGCCGCGGAGTCACCTAGTGCAG | 9060 fluorescence intensity (a.u.)
GCCTACTCCTACTTGTACATACTTGCTTTTTTTTTTTTTCCGGAGTCACCTAGTGCAG | 17500 fluorescence intensity (a.u.)
ACGTACCATTCTGTCTGAAGTAGAATGTATGTTTGACGTCCGGAGTCACCTAGTGCAG | 8850 fluorescence intensity (a.u.)
AGATATCCGGTTTTGTAGTTTAGGGTCATGGTTTAGATTTCGGAGTCACCTAGTGCAG | 10700 fluorescence intensity (a.u.)
TTTTAGTTGGTTAATTTTTGTGTTTGAGTTATTTGCAATGCGGAGTCACCTAGTGCAG | 8910 fluorescence intensity (a.u.)
TTAAATGAGTGTTGACTTTTCGTATAACGTTTGACCATTTCGGAGTCACCTAGTGCAG | 14600 fluorescence intensity (a.u.)
AGGGGTTGTAAACTGGGAGTAGAGAGCCTTTTTCCAGCGGCGGAGTCACCTAGTGCAG | 8220 fluorescence intensity (a.u.)
ATTTTACCGATTTACTATTTATGCAAGCTTACACTGGTGACGGAGTCACCTAGTGCAG | 8480 fluorescence intensity (a.u.)
CTTGGGGAAGGCGGCGGGTGTCGGGGAGGGCGAGGGTATCCGGAGTCACCTAGTGCAG | 18000 fluorescence intensity (a.u.)
AAATATCCGAGTCTTCCTTGAACCAGTTCCTTGACTCCACCGGAGTCACCTAGTGCAG | 8580 fluorescence intensity (a.u.)
CCTCTTTGTTCCTCGTCGGTAATCATCTATCTGGACCTATCGGAGTCACCTAGTGCAG | 9330 fluorescence intensity (a.u.)
CGCGCCGGGTGGCGTTGGTGTTGGCGCCGGGGAGGGTCAGCGGAGTCACCTAGTGCAG | 9140 fluorescence intensity (a.u.)
ATCTCTTTCGTTTTGACCACTTTTGGCTTGTTTCAGAGAACGGAGTCACCTAGTGCAG | 11600 fluorescence intensity (a.u.)
TCAACTGGGAGGCAAATATCTTCATCGTGTTCGTCATTTTCGGAGTCACCTAGTGCAG | 8820 fluorescence intensity (a.u.)
GTCCTCGTCTCCACGCTACCGTTTCGCAACCACCCGCTTCCGGAGTCACCTAGTGCAG | 12700 fluorescence intensity (a.u.)
ACCCACCACATCGACGCGACCACACTCCACACAAGCCATGCGGAGTCACCTAGTGCAG | 10100 fluorescence intensity (a.u.)
ATCGGTCGCCTTTTGGATTGTTGTCCCAGCCCAAACAAACCGGAGTCACCTAGTGCAG | 8690 fluorescence intensity (a.u.)
ATATATATATATATATATATATATATATATATATATTCTACGGAGTCACCTAGTGCAG | 9390 fluorescence intensity (a.u.)

Sequence | binding signal
GTCCACACTCCGCGCTCCCGTGATCGCGCATCATACTTAACGGAGTCACCTAGTGCAG | 10300 fluorescence intensity (a.u.)
CCTTGCCTTTTCTGGTCTAGGCGTATCTGTCGTATTGGGCCGGAGTCACCTAGTGCAG | 10400 fluorescence intensity (a.u.)
CGCATCCGCATGAGCAGCGCGCATCGCCGTGTTCTTCACTCGGAGTCACCTAGTGCAG | 8710 fluorescence intensity (a.u.)
AAATTAGGCTAAGATCTTGTTTTGTTCTTCTTGTTTAATTCGGAGTCACCTAGTGCAG | 11500 fluorescence intensity (a.u.)
ACCTTTCATAAGCTTAGTGGTATTCTCAAACCCATAGTATCGGAGTCACCTAGTGCAG | 8670 fluorescence intensity (a.u.)
GGTGGTTCGTGAAGGGGACGGAGGGGTGGACGGGGCTGGTCGGAGTCACCTAGTGCAG | 12400 fluorescence intensity (a.u.)
AAATGTAGTTTTGCACTGTTCATGTCCAACGTTTGACCATCGGAGTCACCTAGTGCAG | 9750 fluorescence intensity (a.u.)
CGTTCTGTCATTTGGGTTTTATGTTTGTTCTCTCTTGTTTCGGAGTCACCTAGTGCAG | 12000 fluorescence intensity (a.u.)
CCCATCCTCTCTCTCTCTCTCTCTCTCGCTCGCATCGCCTCGGAGTCACCTAGTGCAG | 8810 fluorescence intensity (a.u.)
CGCCGACTTCACCTACGTGTTCACCAGCTTCCACGGCATGCGGAGTCACCTAGTGCAG | 12300 fluorescence intensity (a.u.)
GCATACTTTCTATTTGCGCATCTCCCTGTCCTCAAAACAACGGAGTCACCTAGTGCAG | 10300 fluorescence intensity (a.u.)
TCCGTCCTCGCATTCTCGGCTTCTCGCCACCGGCCCACGCCGGAGTCACCTAGTGCAG | 9200 fluorescence intensity (a.u.)
GGGGCACATACCTGATTACGAAAAATTGGAGGGCTTTTTCCGGAGTCACCTAGTGCAG | 8650 fluorescence intensity (a.u.)
TTATATTCATGCTTGTTGATGCATTCTTTTTTGGACAACTCGGAGTCACCTAGTGCAG | 9970 fluorescence intensity (a.u.)
TCCTCCTCTTCCTCGCCGTTGCCGCCGCCGCCACCATCGCCGGAGTCACCTAGTGCAG | 8440 fluorescence intensity (a.u.)
TCCCATCATCCCTTCACCCACCCGCACGCGTCTCCTCCGACGGAGTCACCTAGTGCAG | 9440 fluorescence intensity (a.u.)
CGTCCCATTTTAAATACAGTTATGTTTTTTCGTGCTCAACCGGAGTCACCTAGTGCAG | 10400 fluorescence intensity (a.u.)
CTATTCCATTCTGCTACTAGTATACTCCTTCAGTAGTGCACGGAGTCACCTAGTGCAG | 8090 fluorescence intensity (a.u.)
GCCCTCACTACAAGAATCACATATTTCTCACAGCAAGCATCGGAGTCACCTAGTGCAG | 8440 fluorescence intensity (a.u.)
TTTTCTACTGTTTCCAACCCTTTTCGTCGCTACTCCTACACGGAGTCACCTAGTGCAG | 9280 fluorescence intensity (a.u.)
TCGGTTCCGTGGTTCGTCTAGGGTTTAGTGGGTTGAGATGCGGAGTCACCTAGTGCAG | 10100 fluorescence intensity (a.u.)
